PubChem BioAssay AID1259308 – NCATS | 2017

Assay: 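Candidate targets for better recombinant protein yield in mammalian cells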 (primary screen)
Cell system: human HEK293 embryonic kidney cells stably expressing firefly luciferase (HEK-CMV-Luc2-Hygro)
Reagents: single siRNA against human genes, 0.8 pmol siRNA per well
Time to read-out: 72 h
Read-out: 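Reporter luminescence and viable-cell signal on separate replicate plates, given as percent of non-targeting control and median/MAD z-scores, plus per-cell luciferase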
Direction: total luciferase, z-score and total luciferase, % of control: higher = more reporter protein produced; luciferase per cell, z-score: higher = more reporter output per viable cell
Hit rule: 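An siRNA counts as active if its total luciferase robust z-score exceeds 3; genes with two or more such siRNAs out of three were retested with fresh siRNAs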
Meaning of the calls: active = raised luciferase; inactive = no rise
Shown is one part, drawn at random, of about 59,000 reagents tested. Of all reagents, about 1,510 (2.6%) are marked active. 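Calls use total luciferase alone and ignore viability, so some active siRNAs may act by altering cell number.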 The numbers tell different reagents against one gene apart. Further read-outs or replicates are left out here.

target	siRNA no.	total luciferase, z-score	total luciferase, % of control	luciferase per cell, z-score	Outcome
HYAL1	1	-0.436	73.2	0.353	inactive
HYAL1	2	-1.45	53	-2.05	inactive
HYAL1	3	0.43	90.4	0.405	inactive
CNIH4	1	0.365	89.1	0.145	inactive
CNIH4	2	-0.265	76.6	-0.0938	inactive
CNIH4	3	-1.19	58.1	-1.24	inactive
ORAI2	1	2.85	139	2.21	inactive
ORAI2	2	-0.838	65.2	-0.922	inactive
ORAI2	3	-0.0158	81.6	0.311	inactive
OTOL1	1	-0.421	73.5	-0.141	inactive
OTOL1	2	-0.829	65.4	-1.07	inactive
OTOL1	3	2.06	123	1.75	inactive
ACADSB	1	-0.868	64.6	-1.4	inactive
ACADSB	2	-0.434	73.3	-1.11	inactive
ACADSB	3	0.761	97	1.11	inactive
PRLHR	1	3.14	144	1.51	active
PRLHR	2	0.705	95.9	0.218	inactive
PRLHR	3	-1.8	46.1	-1.91	inactive
LHX3	1	-1.33	55.4	-1.26	inactive
LHX3	2	3.05	143	1.97	active
LHX3	3	-0.062	80.7	-0.0953	inactive
WASF3	1	0.907	99.9	0.769	inactive
WASF3	2	0.995	102	1.19	inactive
WASF3	3	0.882	99.4	1.13	inactive
COL11A2	1	-2.24	37.3	-2.52	inactive
COL11A2	2	-0.488	72.2	0.528	inactive
COL11A2	3	0.0557	83	0.461	inactive

Already shown: an excerpt of the list.
target	siRNA no.	total luciferase, z-score	total luciferase, % of control	luciferase per cell, z-score	Outcome
PRLHR	1	3.14	144	1.51	active
PRLHR	2	0.705	95.9	0.218	inactive
PRLHR	3	-1.8	46.1	-1.91	inactive
LHX3	1	-1.33	55.4	-1.26	inactive
LHX3	2	3.05	143	1.97	active

The listing continues:
target	siRNA no.	total luciferase, z-score	total luciferase, % of control	luciferase per cell, z-score	Outcome
DMPK	1	-0.944	63.1	-1.24	inactive
DMPK	2	0.85	98.8	0.461	inactive
DMPK	3	1.13	104	1.13	inactive
TMEM219	1	0.463	91.1	-0.134	inactive
TMEM219	2	0.524	92.3	0.518	inactive
TMEM219	3	-0.422	73.5	-0.129	inactive
TCEAL6	1	-1.7	48	-1.12	inactive
TCEAL6	2	-1.06	60.8	-1.35	inactive
TCEAL6	3	0.876	99.3	0.979	inactive
DNAH10	1	0.717	96.1	1.16	inactive
DNAH10	2	5.28	187	3.93	active
DNAH10	3	0.979	101	1.42	inactive
LSM14B	1	-0.736	67.3	-0.975	inactive
LSM14B	2	-0.532	71.3	-0.568	inactive
LSM14B	3	-2.01	41.8	-2.02	inactive
SPRY2	1	0.868	99.1	0.229	inactive
SPRY2	2	1.54	113	0.518	inactive
SPRY2	3	-0.573	70.5	-0.489	inactive
RNASE6	1	1.53	112	0.661	inactive
RNASE6	2	-1.68	48.5	-0.877	inactive
RNASE6	3	-1.32	55.7	-1.51	inactive
C11orf58	1	2.54	132	1.24	inactive
C11orf58	2	1.44	110	0.52	inactive
C11orf58	3	0.584	93.5	-0.0519	inactive
SEPTIN10	1	-0.0251	81.4	0.227	inactive
SEPTIN10	2	-0.702	67.9	-0.392	inactive
SEPTIN10	3	3.22	146	1.7	active
LINC01501	1	-0.392	74.1	-0.823	inactive
LINC01501	2	0.656	94.9	0.88	inactive
LINC01501	3	-0.0144	81.6	0.314	inactive
